Reference: PubChem BioAssay AID1671195 (Yale University, 2021)
Assay: 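Genes whose knockdown alters LDL uptake in liver cancer cells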 (primary screen). System: human Huh7 hepatoma cells. Knock-down reagent: siRNA pool against human genes, 18 nM. Timing: about 2 to 2.5 days of knockdown, then 8 h LDL uptake. Treatment: DiI-labelled LDL at 30 µg/ml for 8 h, in lipoprotein-deficient serum medium. Measurement: 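Per-cell DiI-LDL intensity by automated imaging; well means scaled to the plate median and given as a robust z-score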. Reading the numbers: robust z-score: higher = more LDL uptake after knockdown. Call rule: 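a gene counts as active if at least two replicate z-scores exceed ±2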.
In all, the deposit lists about 22,000 reagents; shown is an unselected part. Over the whole deposit, about 1,510 (6.9%) got an active call. 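Active includes knockdowns raising or lowering LDL uptake; positive z-scores mean more uptake, negative mean less.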

gene | PubChem SID | robust z-score, replicate 1 | robust z-score, replicate 2 | robust z-score, replicate 3 | outcome
ASB12 | SID442884741 | -1.59 | -2.3 | -1.84 | inactive
COPG2 | SID442893791 | 0.628 | -1.06 | 0.465 | inactive
STK4 | SID442894349 | -0.324 | -0.163 | 0.325 | inactive
LOC442057 (retired record) | SID442900748 | -1.22 | -0.459 | -0.728 | inactive
DKK3 | SID442898676 | -1.76 | 1.14 | -0.957 | inactive
GTF3C1 | SID442899922 | -0.866 | -0.665 | -0.531 | inactive
SEMA7A | SID442899318 | -0.683 | -0.606 | -0.523 | inactive
LIG3 | SID442898939 | -0.0772 | -0.329 | -1.26 | inactive
LOC442470 (retired record) | SID442893878 | -0.347 | 0.286 | 0.0637 | inactive
SMNDC1 | SID442898049 | -0.732 | -0.306 | -0.331 | inactive
FCRL3 | SID442896217 | -0.499 | -0.092 | -0.157 | inactive
TNFRSF8 | SID442889822 | 0.488 | 0.648 | 0.377 | inactive
UROS | SID442888111 | 0.718 | 0.697 | 0.931 | inactive
SERPINA2 | SID442893937 | -0.176 | 0.0698 | 0.0857 | inactive
LACRT | SID442891969 | 0.0461 | 0.293 | 0.333 | inactive
ADH5 | SID442887841 | 0.813 | 0.884 | 0.797 | inactive
C2orf76 | SID442895117 | -0.277 | -0.521 | 0.393 | inactive
ARK2C | SID442890853 | 0.384 | 0.447 | 0.257 | inactive
LOC442339 (retired record) | SID442892152 | 0.372 | 0.073 | 0.161 | inactive
OR2A12 | SID442892986 | -0.162 | 0.284 | 0.178 | inactive
BIRC5 | SID442892260 | 0.368 | 0.321 | -0.116 | inactive
IZUMO2 | SID442888916 | 0.476 | 0.546 | 0.898 | inactive
SMARCE1 | SID442886456 | 0.629 | 1.36 | 1.48 | inactive
DNAJC3 | SID442898153 | -0.935 | 0.0372 | -0.504 | inactive
TIMD4 | SID442898221 | -0.646 | -0.403 | -0.375 | inactive
CXXC1 | SID442886178 | 1.31 | 1.45 | 0.957 | inactive
CENPU | SID442885202 | 1.85 | 1.66 | 1.36 | inactive
ZNF462 | SID442895784 | -0.161 | -0.0596 | -0.398 | inactive
THBS1 | SID442893245 | -0.275 | -0.106 | 0.597 | inactive

The list goes on; the last 3 above are carried over.
gene | PubChem SID | robust z-score, replicate 1 | robust z-score, replicate 2 | robust z-score, replicate 3 | outcome
CENPU | SID442885202 | 1.85 | 1.66 | 1.36 | inactive
ZNF462 | SID442895784 | -0.161 | -0.0596 | -0.398 | inactive
THBS1 | SID442893245 | -0.275 | -0.106 | 0.597 | inactive
RAB2A | SID442884821 | 3.35 | 0.616 | 1.61 | inactive
LINC00343 | SID442895718 | 0.109 | -0.956 | 0.25 | inactive
ANKRD19P | SID442891556 | 0.157 | 0.0244 | 0.634 | inactive
ABCA6 | SID442886070 | 1.03 | 1.23 | 1.57 | inactive
LOC389983 (retired record) | SID442887677 | 0.729 | 0.884 | 0.981 | inactive
TMEM244 | SID442896703 | -0.172 | -0.354 | -0.381 | inactive
KRT71 | SID442899217 | -0.724 | -0.52 | -0.532 | inactive
ZNF780B | SID442893082 | -0.122 | -0.0296 | 0.423 | inactive
ZBTB1 | SID442899070 | -0.42 | -0.634 | -0.664 | inactive
COL4A6 | SID442899940 | -0.884 | -0.551 | -0.634 | inactive
ZNF598 | SID442902451 | -1.24 | -1.01 | -0.988 | inactive
CRX | SID442900697 | -0.679 | -1.09 | -0.618 | inactive
CMKLR2 | SID442883428 | 4 | 1.9 | 2.87 | active
RTRAF | SID442890201 | -0.934 | 2.04 | 0.241 | inactive
CYP2D6 | SID442896916 | -0.308 | -0.291 | -0.381 | inactive
MC5R | SID442886063 | 1.22 | 1.87 | 0.745 | inactive
SLC24A5 | SID442894136 | 0.0541 | -0.115 | -0.0297 | inactive
SLC48A1 | SID442891639 | 1.51 | -0.715 | -0.014 | inactive
PRKDC | SID442900004 | -1.37 | 0.2 | -0.927 | inactive
YEATS4 | SID442900509 | -0.797 | -0.785 | -0.726 | inactive
ATXN7L3 | SID442898975 | -1.61 | 0.0541 | -0.128 | inactive
ARID4B | SID442896942 | -0.392 | -0.411 | -0.183 | inactive
NOTCH1 | SID442894229 | -0.443 | 0.397 | -0.0763 | inactive
LIMD1 | SID442900077 | -0.799 | -0.717 | -0.61 | inactive
CCNB2 | SID442893855 | -0.378 | 0.715 | -0.325 | inactive
ZNF561 | SID442887223 | 1.7 | 1.53 | -0.352 | inactive
PPP2R2A | SID442903415 | -1.27 | -1.48 | -1.13 | inactive
AP3B2 | SID442890018 | 0.202 | 0.578 | 0.644 | inactive
HLA-DRB4 | SID442901082 | 0.123 | -1.67 | -1 | inactive
THOC2 | SID442902963 | -1.33 | -0.95 | -1.28 | inactive
KIF25 | SID442899841 | -0.814 | -0.158 | -1.06 | inactive
BPIFB6 | SID442894412 | 0.0459 | 0.0838 | -0.313 | inactive
NDST1 | SID442904050 | -1.54 | -1.58 | -1.31 | inactive
LOC441552 (retired record) | SID442904535 | -1.81 | -1.77 | -1.5 | inactive
ABT1 | SID442895956 | 0.141 | 0.247 | -1.06 | inactive
OR1A2 | SID442887394 | 1.03 | -0.26 | 2 | inactive
RETREG1 | SID442896862 | -1.25 | 0.836 | -0.554 | inactive
SSBP3 | SID442888399 | 0.76 | 0.9 | 0.519 | inactive
PABPC1L2A | SID442895497 | -0.231 | -0.096 | -0.198 | inactive
